No constants are given. Whether binding was seen depends on the method and setting. Some binding calls cover weakened binding; strength is not graded here. For some of these results: Sequences can lack the tags named with a protein.

The chains behind the UniProt entries cited, without tags or fusion partners. Where a name states a change or a piece, a line headed by the entry shows the natural chain unless it says otherwise. A line that says so, or that is headed by a name, gives the form on record, which may keep a tag or linker.
huIL-17.Fc (huIL17 with N-terminal flag and huFC (IgG1)) (Q16552, form named): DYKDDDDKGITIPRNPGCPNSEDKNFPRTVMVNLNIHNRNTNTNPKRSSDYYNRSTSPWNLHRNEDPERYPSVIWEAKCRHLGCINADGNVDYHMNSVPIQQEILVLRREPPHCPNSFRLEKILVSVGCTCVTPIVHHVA

For test [1], the target named is IL-17RAΔFN2linker/CFP (FN2/linker region, residues 152-525, fused to CFP), expressed in HEK293 cells (murine) (UniProt Q60943). Put plainly: flow cytometry, huIL-17.Fc then anti-Fc-APC, endogenous human IL-17RA blocked. (In general: Flow cytometry measures light scatter and fluorescence of single cells or particles in a stream.)
The target is the same in test [2]. Put plainly: flow cytometry, huIL-17.Fc staining.
Test [3] has the same target. Put plainly: flow cytometry, huIL-17.Fc then anti-huIgG-APC, endogenous human IL-17RA blocked with M202.
In test [4] the target is IL-17RAΔFN2linker/YFP (FN2/linker region, residues 152-525, fused to YFP), expressed in HEK293 cells (murine) (UniProt Q60943). Put plainly: FRET in HEK293 cells.
Test [5] has the same target. Put plainly: FRET in HEK293 cells, no ligand.
Test [6] deals with IL-17RAΔ/YFP (complete IL-17RA ECD and transmembrane domain, cytoplasmic tail truncated at residue 525, fused to YFP), expressed in HEK293 cells (murine) (UniProt Q60943). Put plainly: FRET in HEK293 cells, no ligand.

Turning to “huIL-17.Fc (huIL17 with N-terminal flag and huFC (IgG1)) (from UniProt Q16552 24-155) (Fc fusion)”, the binding entry in test [1], in test [2] and in test [3] was “binds” in each case.

B1: IL-17RAΔFN2linker/CFP (FN2/linker region, residues 152-525, fused to CFP), expressed in HEK293 cells (receptor, not shown: large carriers)
chain: PDCEDSKMKMTTSCVSSGSLWDPNITVETLDTQHLRVDFTLWNESTPYQVLLESFSDSENHSCFDVVKQIFAPRQEEFHQRANVTFTLSKFHWCCHHHVQVQPFFSSCLNDCLRHAVTVPCPVISNTTVPKPVADYIPLWVYGLITLIAILLVGSVIVLIICMTWRLSGADQEKHGDDSKINGILPVADLTPPPLRPRKVWIVYSADHPLYVEVVLKFAQFLITACGTEVALDLLEEQVISEVGVMTWVSRQKQEMVESNSKIIILCSRGTQAKWKAILGWAEPAVQLRCDHWKPAGDLFTAAMNMILPDFKRPACFGTYVVCYFSGICSERDVPDLFNITSRYPLMDRFEEVYFRIQDLEMFEPGRMHHVREL
Consider B1, for which the binding entry in test [4] and in test [5] was “binds” in each case.

B2: IL-17RAΔ/CFP (complete IL-17RA ECD and transmembrane domain, cytoplasmic tail truncated at residue 525, fused to CFP), expressed in HEK293 cells (receptor, not shown: large carriers)
chain: SPRLLDFPAPVCAQEGLSCRVKNSTCLDDSWIHPKNLTPSSPKNIYINLSVSSTQHGELVPVLHVEWTLQTDASILYLEGAELSVLQLNTNERLCVKFQFLSMLQHHRKRWRFSFSHFVVDPGQEYEVTVHHLPKPIPDGDPNHKSKIIFVPDCEDSKMKMTTSCVSSGSLWDPNITVETLDTQHLRVDFTLWNESTPYQVLLESFSDSENHSCFDVVKQIFAPRQEEFHQRANVTFTLSKFHWCCHHHVQVQPFFSSCLNDCLRHAVTVPCPVISNTTVPKPVADYIPLWVYGLITLIAILLVGSVIVLIICMTWRLSGADQEKHGDDSKINGILPVADLTPPPLRPRKVWIVYSADHPLYVEVVLKFAQFLITACGTEVALDLLEEQVISEVGVMTWVSRQKQEMVESNSKIIILCSRGTQAKWKAILGWAEPAVQLRCDHWKPAGDLFTAAMNMILPDFKRPACFGTYVVCYFSGICSERDVPDLFNITSRYPLMDRFEEVYFRIQDLEMFEPGRMHHVREL
For B2, the binding entry in test [6] and in test [5] was “binds” each time.
